Where a name gives a salt, the structure may show the parent alone. This is one part of the list. Hit calls seldom repeat between salt and free forms of one compound.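 Kinases were expressed as nanoluciferase fusions in K562 cells and luminescence was read every 4 h between 2 and 18 h as percent of control, DMSO set to 100% and a positive control to 0%. A time point counts as decreased when the signal drops significantly (2 sigma). The hit call is the authors' own, does not follow from the count of time points alone, and its rule is not shown.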
Test system: BRAF_V600E
Assay: kinase-Nluc reporter destabilization hit call (1 = scored as downregulated) (binary); higher = compound decreases kinase abundance
Conditions: K562; 2-18 h

Structure (SMILES) | kinase-Nluc reporter destabilization hit call
CCCCNc1nc(N)c2[nH]c(=O)n(Cc3ccc(C)nc3)c2n1 (10 µM) | inactive: 0
N#CC(C#N)=Cc1ccc([N+](=O)[O-])c(O)c1 (10 µM) | inactive: 0
O=c1[nH]c2ccccc2n1C1CCN(Cc2ccc(-c3[nH]c4cc5ncnc5cc4nc3-c3ccccc3)cc2)CC1 [AKT inhibitor VIII] (2.5 µM) | inactive: 0
CC(=O)Oc1ccc(/C=C/c2cc(OC(C)=O)cc(OC(C)=O)c2)cc1 [Triacetylresveratrol] (10 µM) | inactive: 0
O=C1c2ccccc2C(=O)c2c1cccc2-c1cnn(C2CCNCC2)c1 [PDK4-IN-1 (hydrochloride)] (10 µM) | inactive: 0
CC1C(=O)OC2C(O)C34C5OC(=O)C3(OC3OC(=O)C(O)C34C(C(C)(C)C)C5O)C12O (stereo not drawn) [Ginkgolide C] (10 µM) | inactive: 0
O=Cc1cn(Cc2ccc(Cl)cc2)c2ccccc12 [Oncrasin-1] (10 µM) | inactive: 0
N#CC(C#N)=NNc1cccc(Cl)c1 (2.5 µM) | inactive: 0
CC(C)=CC[C@@H](OC(=O)CC(C)(C)O)C1=CC(=O)c2c(O)ccc(O)c2C1=O [β-Hydroxyisovalerylshikonin] (2.5 µM) | inactive: 0
O=c1ccc2cc(O[C@@H]3O[C@H](CO)[C@@H](O)[C@H](O)[C@H]3O)c(O)cc2o1 [Esculin] (10 µM) | inactive: 0
C[C@H]1CC[C@]2(NC1)O[C@H]1C[C@H]3[C@@H]4CC[C@H]5C[C@@H](O)CC[C@]5(C)[C@H]4CC[C@]3(C)[C@H]1[C@@H]2C [Tomatidine] (2 µM) | inactive: 0
C/C(O)=C(\C#N)C(=O)Nc1cc(Br)ccc1Br (10 µM) | inactive: 0
COc1ccc2c(c[n+](C)c3c4cc5c(cc4ccc23)OCO5)c1OC [Chelerythrine (chloride)] (10 µM) | inactive: 0
COc1ccc2c(c1)[nH]c1c(C)nccc12 [Harmine] (10 µM) | inactive: 0
CCCCCCCCCCCCCCCCOC[C@H](COP(=O)([O-])OCC[N+](C)(C)C)OC(C)=O (10 µM) | inactive: 0
O=C(O)c1sc2cc(Cl)ccc2c1Cl (10 µM) | inactive: 0
C[S+]([O-])/C=C/CCN=C=S (stereo not drawn) [Sulforaphene] (10 µM) | inactive: 0
Cn1cc(C2=C(c3cn(C4CCN(Cc5ccccn5)CC4)c4ccccc34)C(=O)NC2=O)c2ccccc21 [Enzastaurin] (10 µM) | inactive: 0
CCN1CCN(C(=O)Cc2ccc(Nc3ncc(F)c(Nc4ccc(C(=O)Nc5ccccc5Cl)cc4)n3)cc2)CC1 (2.5 µM) | inactive: 0
Cc1n[nH]cc1-c1cc2nc([C@@H]3CC4CCN3CC4)[nH]c(=O)c2s1 [Simurosertib] (2.5 µM) | inactive: 0
O=C(N[C@@H](COc1ccc2[nH]c(=O)[nH]c2c1)c1ccccc1)c1cccn(Cc2ccc(F)c(F)c2)c1=O (2.5 µM) | inactive: 0
CCOC(=O)c1c(/C(C#N)=C\N)c2ccc(Cl)c(Cl)c2n1C (10 µM) | inactive: 0
C[C@H](CCC(=O)O)C[C@H](C)C[C@H](C)C(=O)/C=C(\O)[C@H](C)C[C@H](C)C/C=C/[C@@H](C)[C@@H](O)[C@@H](C)[C@@H](O)C[C@@H]1CC[C@@](C)([C@H]2CC[C@@](C)([C@@H](C)O)O2)O1 [Ionomycin (calcium)] (2.5 µM) | inactive: 0
CC(C)(C)c1cc(C=C(C#N)C#N)cc(Br)c1O (2.5 µM) | inactive: 0
C=CC(=O)N[C@H]1C=C(C)c2c(-c3cnc4ccccc4c3)c3c(N)ncnc3n2C1 (10 µM) | inactive: 0
COC[C@H]1OC(=O)c2coc3c2[C@@]1(C)C1=C(C3=O)[C@@H]2CCC(=O)[C@@]2(C)C[C@H]1OC(C)=O [Wortmannin] (2.5 µM) | inactive: 0
CC(=O)c1c(O)c(C)c(O)c(Cc2c(O)c3c(c(C(=O)/C=C/c4ccccc4)c2O)OC(C)(C)C=C3)c1O [Rottlerin] (2 µM) | inactive: 0
NCCc1cn(S(=O)(=O)c2c(Cl)nc3sccn23)c2ccccc12 (10 µM) | inactive: 0

Retrieved by structure from the list above (2):
Structure (SMILES) | kinase-Nluc reporter destabilization hit call
N#CC(C#N)=NNc1cccc(Cl)c1 (2.5 µM) | inactive: 0
O=C1c2ccccc2C(=O)c2c1cccc2-c1cnn(C2CCNCC2)c1 [PDK4-IN-1 (hydrochloride)] (10 µM) | inactive: 0

Source: the supplement of paper PMC12823440, “Inhibitors supercharge kinase turnover through native proteolytic circuits” (Nature, 2025)
